Source: the supplement of paper PMC10849652
Some of the results follow.

Chains of the proteins cited; added tags and fusions are not shown. Lines headed by an entry give the natural chain unless they say otherwise; changes in a name come on top.
UniProt Q96AG4: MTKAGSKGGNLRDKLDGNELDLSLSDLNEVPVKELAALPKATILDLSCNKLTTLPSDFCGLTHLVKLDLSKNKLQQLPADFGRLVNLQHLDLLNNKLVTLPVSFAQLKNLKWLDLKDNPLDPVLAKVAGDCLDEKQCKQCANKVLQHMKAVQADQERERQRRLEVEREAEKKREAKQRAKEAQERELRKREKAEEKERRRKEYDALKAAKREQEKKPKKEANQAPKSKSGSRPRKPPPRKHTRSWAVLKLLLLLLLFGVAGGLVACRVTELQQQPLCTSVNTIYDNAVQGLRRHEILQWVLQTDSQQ
UniProt Q9UHA4, whole entry, looked up: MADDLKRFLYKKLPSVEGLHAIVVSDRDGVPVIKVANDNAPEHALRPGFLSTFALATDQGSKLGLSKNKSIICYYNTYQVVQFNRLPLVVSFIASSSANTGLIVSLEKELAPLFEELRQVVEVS
UniProt O95202: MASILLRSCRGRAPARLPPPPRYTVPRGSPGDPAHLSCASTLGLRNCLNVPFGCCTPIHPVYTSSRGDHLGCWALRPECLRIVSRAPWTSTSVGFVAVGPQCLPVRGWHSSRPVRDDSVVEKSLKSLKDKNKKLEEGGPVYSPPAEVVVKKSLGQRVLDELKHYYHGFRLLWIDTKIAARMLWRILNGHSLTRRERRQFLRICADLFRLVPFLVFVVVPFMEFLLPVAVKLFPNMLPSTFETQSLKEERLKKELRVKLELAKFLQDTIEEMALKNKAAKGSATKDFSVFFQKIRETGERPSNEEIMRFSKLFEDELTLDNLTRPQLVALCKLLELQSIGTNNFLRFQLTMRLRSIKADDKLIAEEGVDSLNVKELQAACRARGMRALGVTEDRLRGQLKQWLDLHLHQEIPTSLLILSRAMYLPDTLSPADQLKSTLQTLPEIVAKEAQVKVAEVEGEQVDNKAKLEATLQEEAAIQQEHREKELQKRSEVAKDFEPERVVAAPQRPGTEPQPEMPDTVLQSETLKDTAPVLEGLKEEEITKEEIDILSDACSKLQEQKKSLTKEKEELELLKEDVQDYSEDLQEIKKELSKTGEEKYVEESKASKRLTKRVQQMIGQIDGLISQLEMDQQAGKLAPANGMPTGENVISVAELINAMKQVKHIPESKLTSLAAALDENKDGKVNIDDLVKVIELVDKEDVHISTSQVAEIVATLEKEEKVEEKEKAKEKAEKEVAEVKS
UniProt Q6P5S2: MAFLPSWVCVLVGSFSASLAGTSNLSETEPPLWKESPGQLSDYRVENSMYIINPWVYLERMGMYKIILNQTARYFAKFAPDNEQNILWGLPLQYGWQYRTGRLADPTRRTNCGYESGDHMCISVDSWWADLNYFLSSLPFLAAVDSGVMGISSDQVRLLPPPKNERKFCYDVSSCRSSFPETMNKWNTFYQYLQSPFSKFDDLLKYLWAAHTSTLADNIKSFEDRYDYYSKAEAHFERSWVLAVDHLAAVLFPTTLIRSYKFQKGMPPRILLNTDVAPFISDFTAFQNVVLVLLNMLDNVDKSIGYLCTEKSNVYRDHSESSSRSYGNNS
UniProt Q7L5N7: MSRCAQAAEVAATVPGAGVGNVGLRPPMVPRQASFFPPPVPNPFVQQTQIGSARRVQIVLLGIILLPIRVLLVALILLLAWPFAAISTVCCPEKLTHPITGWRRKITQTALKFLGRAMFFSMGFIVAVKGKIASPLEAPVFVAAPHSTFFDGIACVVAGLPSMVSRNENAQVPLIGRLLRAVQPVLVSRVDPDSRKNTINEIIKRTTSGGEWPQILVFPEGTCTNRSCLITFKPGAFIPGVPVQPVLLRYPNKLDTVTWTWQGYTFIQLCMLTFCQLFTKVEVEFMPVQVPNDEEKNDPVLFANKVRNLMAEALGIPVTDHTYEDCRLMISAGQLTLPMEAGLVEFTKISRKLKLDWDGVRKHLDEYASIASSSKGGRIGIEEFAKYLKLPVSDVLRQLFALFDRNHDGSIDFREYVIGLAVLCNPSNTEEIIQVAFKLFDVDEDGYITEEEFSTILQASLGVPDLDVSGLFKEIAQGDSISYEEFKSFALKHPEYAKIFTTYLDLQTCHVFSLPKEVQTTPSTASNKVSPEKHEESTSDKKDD
UniProt O43813, whole entry, looked up: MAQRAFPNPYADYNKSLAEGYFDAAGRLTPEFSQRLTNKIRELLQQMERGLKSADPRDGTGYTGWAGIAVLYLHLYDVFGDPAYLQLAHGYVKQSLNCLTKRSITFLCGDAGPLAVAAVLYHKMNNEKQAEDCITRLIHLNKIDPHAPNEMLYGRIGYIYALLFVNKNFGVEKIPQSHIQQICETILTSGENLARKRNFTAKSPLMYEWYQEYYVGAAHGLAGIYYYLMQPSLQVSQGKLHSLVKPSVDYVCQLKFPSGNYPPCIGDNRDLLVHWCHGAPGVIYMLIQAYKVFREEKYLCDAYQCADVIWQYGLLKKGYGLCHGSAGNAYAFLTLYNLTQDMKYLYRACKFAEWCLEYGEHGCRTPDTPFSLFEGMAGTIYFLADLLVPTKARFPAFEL
UniProt Q9BQK8: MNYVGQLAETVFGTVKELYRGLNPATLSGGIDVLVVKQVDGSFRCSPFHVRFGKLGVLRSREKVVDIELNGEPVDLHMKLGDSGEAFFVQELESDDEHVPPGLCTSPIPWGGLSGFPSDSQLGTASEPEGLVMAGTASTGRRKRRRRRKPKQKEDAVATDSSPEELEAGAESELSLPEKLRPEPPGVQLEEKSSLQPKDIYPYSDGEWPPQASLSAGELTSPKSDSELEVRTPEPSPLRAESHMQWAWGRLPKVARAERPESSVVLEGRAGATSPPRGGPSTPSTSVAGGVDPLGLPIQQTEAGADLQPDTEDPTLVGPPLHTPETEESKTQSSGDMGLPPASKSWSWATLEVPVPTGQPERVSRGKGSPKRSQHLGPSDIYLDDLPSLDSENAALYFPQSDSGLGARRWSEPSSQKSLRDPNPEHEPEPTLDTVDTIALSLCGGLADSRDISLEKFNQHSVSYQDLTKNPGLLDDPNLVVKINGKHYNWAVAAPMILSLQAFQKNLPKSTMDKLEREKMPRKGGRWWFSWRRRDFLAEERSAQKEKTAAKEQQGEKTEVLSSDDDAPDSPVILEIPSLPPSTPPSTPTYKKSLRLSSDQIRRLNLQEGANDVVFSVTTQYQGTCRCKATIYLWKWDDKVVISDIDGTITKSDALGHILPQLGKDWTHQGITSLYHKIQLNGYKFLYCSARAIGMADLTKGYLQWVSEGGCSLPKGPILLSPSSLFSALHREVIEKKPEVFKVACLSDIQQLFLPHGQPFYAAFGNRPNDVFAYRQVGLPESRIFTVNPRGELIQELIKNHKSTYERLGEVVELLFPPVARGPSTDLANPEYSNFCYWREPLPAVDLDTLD
UniProt Q6P1M3: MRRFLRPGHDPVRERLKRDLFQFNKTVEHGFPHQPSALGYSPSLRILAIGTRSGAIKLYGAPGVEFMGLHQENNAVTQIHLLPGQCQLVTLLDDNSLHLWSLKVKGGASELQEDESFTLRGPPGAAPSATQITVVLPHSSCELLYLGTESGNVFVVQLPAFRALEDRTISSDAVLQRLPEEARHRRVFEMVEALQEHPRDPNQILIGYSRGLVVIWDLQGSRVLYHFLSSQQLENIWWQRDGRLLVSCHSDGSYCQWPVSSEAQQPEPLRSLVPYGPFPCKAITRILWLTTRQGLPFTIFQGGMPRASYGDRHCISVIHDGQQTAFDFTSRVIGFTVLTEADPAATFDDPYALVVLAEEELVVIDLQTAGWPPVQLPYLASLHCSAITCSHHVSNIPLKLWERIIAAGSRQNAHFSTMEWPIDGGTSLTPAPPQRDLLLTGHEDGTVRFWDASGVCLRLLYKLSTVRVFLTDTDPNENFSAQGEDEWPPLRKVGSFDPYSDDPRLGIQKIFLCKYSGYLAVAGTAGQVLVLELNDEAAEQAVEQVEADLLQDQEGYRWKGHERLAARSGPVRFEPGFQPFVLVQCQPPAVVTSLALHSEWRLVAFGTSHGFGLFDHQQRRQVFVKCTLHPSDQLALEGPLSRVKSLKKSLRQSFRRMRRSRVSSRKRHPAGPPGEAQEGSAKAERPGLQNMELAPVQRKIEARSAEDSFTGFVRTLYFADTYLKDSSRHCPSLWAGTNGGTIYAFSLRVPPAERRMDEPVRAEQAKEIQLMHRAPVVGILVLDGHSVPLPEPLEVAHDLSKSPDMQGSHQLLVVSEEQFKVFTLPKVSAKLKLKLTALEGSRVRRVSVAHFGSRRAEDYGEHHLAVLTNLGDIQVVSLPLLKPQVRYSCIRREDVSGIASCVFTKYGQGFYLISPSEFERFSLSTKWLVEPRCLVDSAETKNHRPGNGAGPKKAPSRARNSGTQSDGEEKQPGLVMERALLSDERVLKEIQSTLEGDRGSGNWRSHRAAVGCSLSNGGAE
UniProt Q9NT99: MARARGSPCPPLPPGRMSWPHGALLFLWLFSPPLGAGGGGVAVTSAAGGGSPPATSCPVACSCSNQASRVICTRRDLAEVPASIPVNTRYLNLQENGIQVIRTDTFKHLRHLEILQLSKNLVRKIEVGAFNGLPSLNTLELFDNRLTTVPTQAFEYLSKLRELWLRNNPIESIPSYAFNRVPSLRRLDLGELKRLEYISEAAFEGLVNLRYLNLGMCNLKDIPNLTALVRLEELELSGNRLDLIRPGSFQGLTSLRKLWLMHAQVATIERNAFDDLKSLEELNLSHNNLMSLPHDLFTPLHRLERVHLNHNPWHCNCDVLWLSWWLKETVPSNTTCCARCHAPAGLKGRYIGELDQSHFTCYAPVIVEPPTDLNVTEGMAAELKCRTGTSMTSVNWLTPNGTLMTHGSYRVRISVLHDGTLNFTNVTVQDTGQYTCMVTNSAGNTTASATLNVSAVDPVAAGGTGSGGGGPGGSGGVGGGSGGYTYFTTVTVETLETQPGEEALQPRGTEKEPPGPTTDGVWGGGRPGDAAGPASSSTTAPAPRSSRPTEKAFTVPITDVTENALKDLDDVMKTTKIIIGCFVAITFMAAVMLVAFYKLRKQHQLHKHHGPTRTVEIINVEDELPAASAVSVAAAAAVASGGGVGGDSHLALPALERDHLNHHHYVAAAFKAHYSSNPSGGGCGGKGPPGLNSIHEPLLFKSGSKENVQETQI
UniProt Q8IWU2: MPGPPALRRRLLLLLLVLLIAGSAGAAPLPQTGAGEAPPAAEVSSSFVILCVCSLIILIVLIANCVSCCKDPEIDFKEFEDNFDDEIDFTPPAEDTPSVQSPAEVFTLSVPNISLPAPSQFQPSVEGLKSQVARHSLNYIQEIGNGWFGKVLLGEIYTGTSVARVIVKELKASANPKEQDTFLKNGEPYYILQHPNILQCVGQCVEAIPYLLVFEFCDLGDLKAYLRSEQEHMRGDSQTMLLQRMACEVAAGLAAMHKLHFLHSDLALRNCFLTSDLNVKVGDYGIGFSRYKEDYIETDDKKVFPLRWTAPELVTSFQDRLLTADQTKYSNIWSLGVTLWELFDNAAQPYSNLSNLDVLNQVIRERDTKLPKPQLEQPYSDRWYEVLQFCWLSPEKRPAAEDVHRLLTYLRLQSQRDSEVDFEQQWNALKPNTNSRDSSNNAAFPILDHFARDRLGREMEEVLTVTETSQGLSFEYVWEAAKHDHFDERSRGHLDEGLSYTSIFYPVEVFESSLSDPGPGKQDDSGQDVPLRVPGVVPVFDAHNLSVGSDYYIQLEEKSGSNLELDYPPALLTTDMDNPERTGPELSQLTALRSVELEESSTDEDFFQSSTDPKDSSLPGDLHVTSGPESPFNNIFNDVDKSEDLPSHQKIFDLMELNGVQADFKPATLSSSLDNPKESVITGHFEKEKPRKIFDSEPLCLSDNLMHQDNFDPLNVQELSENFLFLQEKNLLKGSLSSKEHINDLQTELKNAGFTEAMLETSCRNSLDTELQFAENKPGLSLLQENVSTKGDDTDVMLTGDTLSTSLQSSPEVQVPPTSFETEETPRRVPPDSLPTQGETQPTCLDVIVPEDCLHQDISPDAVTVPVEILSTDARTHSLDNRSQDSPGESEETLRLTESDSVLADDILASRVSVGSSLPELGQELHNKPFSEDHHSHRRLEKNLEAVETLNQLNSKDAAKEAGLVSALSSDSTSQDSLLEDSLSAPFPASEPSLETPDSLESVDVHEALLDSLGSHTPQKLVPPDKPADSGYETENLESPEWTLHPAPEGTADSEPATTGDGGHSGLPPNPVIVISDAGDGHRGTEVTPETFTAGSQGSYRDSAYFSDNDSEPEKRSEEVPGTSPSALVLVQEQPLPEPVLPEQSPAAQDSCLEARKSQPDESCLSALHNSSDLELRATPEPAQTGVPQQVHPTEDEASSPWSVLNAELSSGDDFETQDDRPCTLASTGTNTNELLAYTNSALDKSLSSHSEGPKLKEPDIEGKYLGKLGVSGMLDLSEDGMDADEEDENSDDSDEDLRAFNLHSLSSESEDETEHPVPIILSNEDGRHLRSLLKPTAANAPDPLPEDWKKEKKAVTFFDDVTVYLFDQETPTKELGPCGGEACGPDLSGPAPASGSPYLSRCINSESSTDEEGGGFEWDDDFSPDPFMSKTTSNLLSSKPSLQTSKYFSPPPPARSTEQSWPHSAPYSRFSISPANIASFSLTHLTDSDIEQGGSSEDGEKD

What was measured:
Assay in all cases: log2 fold change, soluble protein after heating vs DMSO (PISA); higher = thermal stabilisation; K562 cells, 10 uM, 30 min; active = over 0.2 and 3.5 SD of the protein, either way, in both replicates (recomputed)
bafetinib = compound: Cc1ccc(NC(=O)c2ccc(CN3CC[C@H](N(C)C)C3)c(C(F)(F)F)c2)cc1Nc1nccc(-c2cncnc2)n1 [bafetinib]
Method in brief: (§1)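 K562 cells at 2×10^6 cells/mL were exposed to 10 μM compound for 30 min, then aliquots were heated for 3 min across 48°C-58°C, pooled, and extracted in PBS containing 0.5% NP-40 at 4°C. The supernatant after 21,000xg for 90 min was taken as soluble protein and measured by TMTpro 16plex LC-MS/MS with channel sums equalised. Thermal stability is reported relative to control samples, with values from duplicates. Fold changes are given on a log2 scale.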

[1] = compound: Cc1cccc(CC(=O)N2CCc3c2ccc(-c2cn(C)c4ncnc(N)c24)c3F)n1
Method in brief: as §1

nilotinib = compound: Cc1cn(-c2cc(NC(=O)c3ccc(C)c(Nc4nccc(-c5cccnc5)n4)c3)cc(C(F)(F)F)c2)cn1 [nilotinib]
Method in brief: as §1

[2] = compound: Cc1nc(Nc2n[nH]c3c2CN(C(=O)N[C@H](CN(C)C)c2ccccc2)C3(C)C)c2sccc2n1
Method in brief: as §1

dasatinib = compound: Cc1nc(Nc2ncc(C(=O)Nc3c(C)cccc3Cl)s2)cc(N2CCN(CCO)CC2)n1 [dasatinib]
Method in brief: as §1

[3] = compound: Cc1ncc(-c2ccnc(Nc3ccc(S(C)(=O)=O)cc3)n2)n1C(C)C
Method in brief: as §1

[4] = compound: Cn1cc(-c2ccc3c(c2)CCN3C(=O)Cc2cccc(C(F)(F)F)c2)c2c(N)ncnc21
Method in brief: as §1

[5] = compound: Cn1cc(-c2ccc3nnc(C(F)(F)c4ccc5ncccc5c4)n3n2)cn1
Method in brief: as §1

tipifarnib = compound: Cn1cncc1[C@@](N)(c1ccc(Cl)cc1)c1ccc2c(c1)c(-c1cccc(Cl)c1)cc(=O)n2C [tipifarnib]
Method in brief: as §1

mubritinib = compound: FC(F)(F)c1ccc(/C=C/c2nc(COc3ccc(CCCCn4ccnn4)cc3)co2)cc1 [mubritinib]
Method in brief: as §1

[6] = compound: NC(=O)Nc1cc(-c2cccc(F)c2)sc1C(=O)N[C@H]1CCCNC1
Method in brief: as §1

[7] = compound: NC(=O)c1cnc(N[C@@H]2CCCC[C@@H]2N)nc1Nc1cccc(-n2nccn2)c1
Method in brief: as §1

[8] = compound: NC1(c2ccc(-c3nc4ccn5c(=O)[nH]nc5c4cc3-c3ccccc3)cc2)CCC1
Method in brief: as §1

[9] = compound: NCC(=O)Nc1ccc(-n2nc(C(F)(F)F)cc2-c2ccc3c(ccc4ccccc43)c2)cc1
Method in brief: as §1

entinostat = compound: Nc1ccccc1NC(=O)c1ccc(CNC(=O)OCc2cccnc2)cc1 [entinostat]
Method in brief: as §1

vorinostat = compound: O=C(CCCCCCC(=O)Nc1ccccc1)NO [vorinostat]
Method in brief: as §1

citarinostat = compound: O=C(CCCCCCNC(=O)c1cnc(N(c2ccccc2)c2ccccc2Cl)nc1)NO [citarinostat]
Method in brief: as §1

silmitasertib = compound: O=C(O)c1ccc2c(c1)nc(Nc1cccc(Cl)c1)c1ccncc12 [silmitasertib]
Method in brief: as §1

[10] = compound: O=C1NC(=O)C(c2cnc3ccccn23)=C1c1cn2c3c(cc(F)cc13)CN(C(=O)N1CCCCC1)CC2
Method in brief: as §1

[11] = compound: c1cc(OCCN2CCCCC2)cc(-c2n[nH]c3ccc(-c4nnc[nH]4)cc23)c1
Method in brief: as §1

Measured: log2 fold change

LRRC59 (UniProt Q96AG4)
inactive: bafetinib 0.016 | [1] -0.004 | nilotinib -0.035 | [2] 0.032 | dasatinib 0.028 | [3] -0.019 | [4] 0.011 | [5] 0.008 | tipifarnib -0.01 | mubritinib -0.004 | [6] -0.02 | [7] -0.003 | [8] 0.01 | [9] -0.007 | entinostat -0.027 | vorinostat -0.001 | citarinostat 0.007 | silmitasertib -0.038 | [10] 0.013 | [11] -0.004

LAMTOR3 (UniProt Q9UHA4)
inactive: bafetinib -0.107 | [1] 0.07 | nilotinib -0.108 | [2] -0.017 | dasatinib 0.017 | [3] -0.174 | [4] 0.007 | [5] 0.08 | tipifarnib 0.042 | mubritinib 0.063 | [6] 0.087 | [7] -0.238 | [8] -0.092 | [9] -0.096 | entinostat 0.091 | vorinostat 0.017 | citarinostat 0.099 | silmitasertib -0.023 | [10] -0.071 | [11] -0.063

LCMT2 (UniProt O60294)
inactive: bafetinib -0.104 | [1] -0.042 | nilotinib -0.045 | [2] 0.161 | dasatinib -0.071 | [3] 0.042 | [4] 0.082 | tipifarnib -0.338 | mubritinib 0.196 | [6] -0.003 | [8] 0.029 | [9] 0.149 | entinostat 0.019 | vorinostat -0.047 | citarinostat 0.256 | silmitasertib -0.284 | [10] 0.004 | [11] 0.055

LETM1 (UniProt O95202)
inactive: bafetinib -0.132 | [1] 0.021 | nilotinib -0.002 | [2] -0.011 | dasatinib -0.022 | [3] 0 | [4] 0.042 | [5] 0.018 | tipifarnib 0.01 | mubritinib -0.04 | [6] -0.002 | [7] -0.028 | [8] -0.06 | [9] -0.06 | entinostat 0.027 | vorinostat 0.052 | citarinostat 0.035 | silmitasertib -0.016 | [10] -0.034 | [11] 0

LEG1 (UniProt Q6P5S2)
inactive: bafetinib 0.071 | [1] 0.175 | nilotinib -0.032 | [2] 0.034 | dasatinib 0.024 | [3] 0.081 | [4] -0.134 | tipifarnib -0.222 | mubritinib 0.122 | [6] 0.167 | [7] -0.136 | [8] -0.029 | [9] -0.333 | entinostat 0.026 | vorinostat 0.199 | silmitasertib -0.351

LPCAT2 (UniProt Q7L5N7)
inactive: bafetinib -0.061 | [1] 0.037 | dasatinib -0.061 | [4] -0.041 | [5] -0.014 | tipifarnib 0.035 | mubritinib 0.07 | [6] -0.027 | [7] -0.106 | [8] -0.3 | [9] -0.046 | entinostat -0.034 | vorinostat 0.07 | citarinostat -0.001 | silmitasertib 0.132 | [10] -0.041 | [11] 0.106

Quoted from the entries so far (2 entries):
LEG1 (UniProt Q6P5S2)
inactive: bafetinib 0.071 | [1] 0.175 | nilotinib -0.032 | [2] 0.034 | dasatinib 0.024 | [3] 0.081 | [4] -0.134 | tipifarnib -0.222 | mubritinib 0.122 | [6] 0.167 | [7] -0.136 | [8] -0.029 | [9] -0.333 | entinostat 0.026 | vorinostat 0.199 | silmitasertib -0.351

LPCAT2 (UniProt Q7L5N7)
inactive: bafetinib -0.061 | [1] 0.037 | dasatinib -0.061 | [4] -0.041 | [5] -0.014 | tipifarnib 0.035 | mubritinib 0.07 | [6] -0.027 | [7] -0.106 | [8] -0.3 | [9] -0.046 | entinostat -0.034 | vorinostat 0.07 | citarinostat -0.001 | silmitasertib 0.132 | [10] -0.041 | [11] 0.106

(next part)

LMBRD2 (UniProt Q68DH5)
inactive: bafetinib -0.142 | [1] -0.006 | nilotinib -0.048 | [2] 0.041 | dasatinib 0.019 | [3] -0.028 | [4] -0.03 | [5] 0.043 | tipifarnib 0.189 | mubritinib -0.007 | [6] 0.028 | [7] 0.044 | [8] 0.099 | [9] -0.025 | entinostat -0.011 | vorinostat -0.015 | citarinostat 0.057 | silmitasertib -0.049 | [10] -0.09 | [11] -0.005

LANCL1 (UniProt O43813)
inactive: bafetinib -0.018 | [1] -0.009 | nilotinib 0.004 | [2] 0.013 | dasatinib 0.017 | [3] -0.001 | [4] 0.014 | [5] 0.003 | tipifarnib -0.016 | mubritinib 0.014 | [6] -0.008 | [7] -0.023 | [8] 0.001 | [9] 0.074 | entinostat -0.031 | vorinostat 0.027 | citarinostat 0.037 | silmitasertib -0.021 | [10] 0.073 | [11] -0.036

LRBA, A0A494BZW2
inactive: bafetinib -0.041 | [1] 0.044 | nilotinib 0.019 | [2] -0.016 | dasatinib -0.144 | [3] 0.053 | [4] -0.076 | [5] 0.123 | tipifarnib -0.26 | mubritinib -0.03 | [6] 0.036 | [7] -0.031 | [8] -0.114 | entinostat 0.232 | vorinostat -0.032 | citarinostat 0.03 | silmitasertib 0.011 | [10] 0.063 | [11] 0.028

LGALS3 (UniProt P17931)
inactive: bafetinib -0.084 | [1] 0.07 | nilotinib -0.12 | [2] 0.067 | dasatinib -0.061 | [3] 0.052 | [5] 0.258 | mubritinib -0.061 | [8] -0.064 | vorinostat 0.048 | citarinostat -0.01 | silmitasertib -0.02 | [11] 0.072

LPIN3 isoform 2 (UniProt Q9BQK8)
inactive: bafetinib 0.006 | [1] 0.024 | nilotinib -0.005 | [2] -0.051 | dasatinib -0.128 | [3] 0.038 | [4] 0.06 | [5] 0.002 | tipifarnib 0.008 | mubritinib 0.089 | [6] 0.014 | [7] -0.027 | [8] -0.044 | [9] 0.041 | entinostat -0.006 | vorinostat 0.011 | citarinostat 0.001 | silmitasertib -0.116 | [10] -0.054 | [11] -0.142

LCLAT1 (UniProt Q6UWP7)
inactive: bafetinib -0.042 | [1] 0 | nilotinib -0.083 | [2] 0.058 | dasatinib 0.081 | [3] -0.066 | [4] 0.012 | [5] 0.056 | tipifarnib 0.006 | mubritinib 0.021 | [6] 0.019 | [7] 0.022 | [8] 0.015 | [9] 0.034 | entinostat -0.008 | vorinostat 0.04 | citarinostat 0.025 | silmitasertib -0.037 | [10] 0.001 | [11] -0.001

LMBR1 isoform 3 (UniProt Q8WVP7)
inactive: bafetinib -0.182 | [1] 0.007 | dasatinib 0.012 | [4] 0.093 | [5] -0.143 | tipifarnib -0.044 | mubritinib 0.063 | [6] 0.047 | [7] -0.11 | [8] -0.104 | [9] -0.048 | entinostat 0.071 | vorinostat -0.016 | silmitasertib 0.014 | [10] -0.141

LENG8 (UniProt Q96PV6)
inactive: bafetinib -0.088 | [1] 0.112 | nilotinib 0.006 | [2] -0.036 | dasatinib -0.388 | [3] -0.146 | [4] -0.039 | [5] -0.031 | mubritinib 0.032 | [6] -0.012 | [7] -0.075 | [8] 0.042 | [9] -0.198 | entinostat 0.085 | vorinostat 0.298 | citarinostat 0 | silmitasertib 0.09 | [10] -0.144 | [11] -0.091

LLGL2 (UniProt Q6P1M3)
inactive: bafetinib 0.016 | [1] 0.076 | nilotinib 0.029 | [2] 0.206 | [3] -0.104 | [4] -0.079 | [5] 0.028 | tipifarnib 0.044 | mubritinib -0.098 | [7] 0.105 | [8] 0.097 | vorinostat -0.004 | citarinostat -0.02 | silmitasertib 0.111 | [10] -0.007 | [11] -0.219

LRRC4B (UniProt Q9NT99)
inactive: bafetinib 0.093 | [1] -0.067 | nilotinib -0.161 | [2] 0.107 | dasatinib -0.028 | [3] 0.081 | [4] 0.008 | [5] 0.21 | tipifarnib 0.091 | [6] -0.234 | [7] 0.088 | [9] -0.062 | entinostat -0.294 | vorinostat -0.084 | citarinostat -0.1 | [10] -0.073 | [11] 0.047

LMTK2 (UniProt Q8IWU2)
inactive: bafetinib -0.036 | [1] -0.03 | dasatinib 0.079 | [4] 0.156 | [5] -0.032 | tipifarnib 0.155 | mubritinib -0.021 | [6] -0.047 | [7] 0.009 | [8] -0.018 | [9] 0.067 | entinostat 0.03 | vorinostat -0.079 | silmitasertib 0.169 | [10] 0.023

LEPR (UniProt P48357)
inactive: bafetinib -0.06 | [1] -0.011 | nilotinib 0.1 | [2] 0.019 | dasatinib 0.016 | [3] -0.001 | [4] -0.022 | [5] -0.028 | tipifarnib 0.043 | mubritinib 0.042 | [6] -0.044 | [7] -0.014 | [8] -0.009 | [9] 0.069 | entinostat -0.031 | vorinostat 0.002 | citarinostat 0.024 | silmitasertib -0.002 | [10] -0.011 | [11] -0.075
